Laboratory results from article doi:10.1101/2025.02.14.638307.
Like-named read-outs stand apart in the source and are kept apart here. These are yes or no findings as the source states them, for the method shown. Binding seen in cells or lysates may run through a third protein. Some entries that bind do so weakly or less than the wild type.

Chains of the proteins cited; added tags and fusions are not shown.
UniProt Q9JHI7: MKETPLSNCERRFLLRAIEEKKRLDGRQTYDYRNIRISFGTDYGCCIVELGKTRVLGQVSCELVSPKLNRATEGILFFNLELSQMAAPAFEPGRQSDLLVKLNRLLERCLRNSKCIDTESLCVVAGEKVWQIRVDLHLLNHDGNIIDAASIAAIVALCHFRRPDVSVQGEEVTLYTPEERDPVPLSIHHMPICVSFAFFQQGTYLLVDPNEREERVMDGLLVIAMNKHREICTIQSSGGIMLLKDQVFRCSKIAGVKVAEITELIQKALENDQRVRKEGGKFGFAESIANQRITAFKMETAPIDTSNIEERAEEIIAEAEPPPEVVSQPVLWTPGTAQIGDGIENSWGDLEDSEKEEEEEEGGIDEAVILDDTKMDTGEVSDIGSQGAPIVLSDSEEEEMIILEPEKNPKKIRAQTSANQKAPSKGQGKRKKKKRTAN
UniProt Q61686: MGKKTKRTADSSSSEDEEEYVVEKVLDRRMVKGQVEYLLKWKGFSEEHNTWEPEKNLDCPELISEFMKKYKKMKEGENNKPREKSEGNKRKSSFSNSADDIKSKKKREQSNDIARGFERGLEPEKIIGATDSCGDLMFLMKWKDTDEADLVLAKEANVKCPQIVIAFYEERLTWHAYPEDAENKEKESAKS
UniProt P83917: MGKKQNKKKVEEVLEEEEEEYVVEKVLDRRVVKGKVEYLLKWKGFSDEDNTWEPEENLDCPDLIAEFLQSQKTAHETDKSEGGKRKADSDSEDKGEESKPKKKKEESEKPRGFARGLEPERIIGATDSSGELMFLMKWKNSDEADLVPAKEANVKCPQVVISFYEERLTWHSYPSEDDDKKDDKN
UniProt P23198: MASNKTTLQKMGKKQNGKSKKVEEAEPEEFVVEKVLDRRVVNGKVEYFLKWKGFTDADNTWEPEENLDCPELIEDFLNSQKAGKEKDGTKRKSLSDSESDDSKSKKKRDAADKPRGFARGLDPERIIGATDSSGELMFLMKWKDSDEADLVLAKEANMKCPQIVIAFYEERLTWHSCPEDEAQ

Assays:
Test in all cases: co-IP
[1] = biological target: T1, ZC3H18 (mouse (endogenous in BMEL)) (UniProt Q0P678)
T1 sequence: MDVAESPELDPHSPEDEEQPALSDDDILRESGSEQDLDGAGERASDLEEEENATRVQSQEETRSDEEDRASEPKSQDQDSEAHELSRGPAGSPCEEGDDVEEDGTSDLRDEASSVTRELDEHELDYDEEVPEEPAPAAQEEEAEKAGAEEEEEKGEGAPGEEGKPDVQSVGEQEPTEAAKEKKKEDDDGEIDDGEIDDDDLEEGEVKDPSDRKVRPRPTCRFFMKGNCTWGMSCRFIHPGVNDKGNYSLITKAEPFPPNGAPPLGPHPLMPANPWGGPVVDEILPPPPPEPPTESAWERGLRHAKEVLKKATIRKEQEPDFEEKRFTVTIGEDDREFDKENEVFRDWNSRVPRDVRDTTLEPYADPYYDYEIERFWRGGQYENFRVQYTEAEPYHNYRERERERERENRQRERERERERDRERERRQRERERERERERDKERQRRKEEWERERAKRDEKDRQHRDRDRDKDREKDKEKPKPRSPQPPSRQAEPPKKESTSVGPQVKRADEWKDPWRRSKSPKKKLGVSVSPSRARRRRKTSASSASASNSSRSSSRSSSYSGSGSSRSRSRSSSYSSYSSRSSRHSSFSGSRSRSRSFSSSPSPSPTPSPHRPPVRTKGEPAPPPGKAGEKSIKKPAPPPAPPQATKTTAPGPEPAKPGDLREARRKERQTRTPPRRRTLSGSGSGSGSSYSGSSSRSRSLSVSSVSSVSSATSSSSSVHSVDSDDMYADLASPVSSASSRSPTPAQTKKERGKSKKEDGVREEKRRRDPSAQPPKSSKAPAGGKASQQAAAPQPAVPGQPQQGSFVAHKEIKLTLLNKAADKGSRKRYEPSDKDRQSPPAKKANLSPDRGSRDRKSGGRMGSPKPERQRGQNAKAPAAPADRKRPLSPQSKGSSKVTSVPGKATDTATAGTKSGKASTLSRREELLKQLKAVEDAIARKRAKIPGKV

[2] = biological target: T2, MTR4 (mouse (endogenous in BMEL)) (UniProt Q9CZU3)
T2 sequence: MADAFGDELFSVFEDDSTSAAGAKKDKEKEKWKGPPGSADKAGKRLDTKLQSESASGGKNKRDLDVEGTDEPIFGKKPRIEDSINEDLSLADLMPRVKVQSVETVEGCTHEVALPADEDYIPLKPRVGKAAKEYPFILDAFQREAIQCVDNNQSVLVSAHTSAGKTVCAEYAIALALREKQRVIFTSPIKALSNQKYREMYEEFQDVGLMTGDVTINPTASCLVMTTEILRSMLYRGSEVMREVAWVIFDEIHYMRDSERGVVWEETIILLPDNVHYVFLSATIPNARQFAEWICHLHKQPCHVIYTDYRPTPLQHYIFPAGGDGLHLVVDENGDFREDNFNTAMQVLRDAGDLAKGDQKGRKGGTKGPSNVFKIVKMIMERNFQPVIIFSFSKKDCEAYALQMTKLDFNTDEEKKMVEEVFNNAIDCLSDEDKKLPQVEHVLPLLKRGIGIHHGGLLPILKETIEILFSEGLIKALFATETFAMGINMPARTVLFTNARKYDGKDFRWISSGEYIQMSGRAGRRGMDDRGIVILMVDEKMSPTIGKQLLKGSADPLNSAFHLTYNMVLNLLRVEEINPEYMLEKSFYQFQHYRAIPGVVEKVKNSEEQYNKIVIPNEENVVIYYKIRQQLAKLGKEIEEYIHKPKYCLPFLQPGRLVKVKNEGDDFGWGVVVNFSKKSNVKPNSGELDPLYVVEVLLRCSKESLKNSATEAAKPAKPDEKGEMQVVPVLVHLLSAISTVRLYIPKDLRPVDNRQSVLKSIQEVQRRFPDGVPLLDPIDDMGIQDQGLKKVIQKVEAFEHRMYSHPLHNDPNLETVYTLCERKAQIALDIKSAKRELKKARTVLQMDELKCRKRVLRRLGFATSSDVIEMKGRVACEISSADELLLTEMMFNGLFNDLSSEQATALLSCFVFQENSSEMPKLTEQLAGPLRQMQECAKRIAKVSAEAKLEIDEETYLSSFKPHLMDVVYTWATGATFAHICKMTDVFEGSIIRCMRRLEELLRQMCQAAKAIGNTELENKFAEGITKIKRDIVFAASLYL

[3] = biological target: EXOSC9 (mouse (endogenous in BMEL)) (UniProt Q9JHI7)
[4] = biological target: T3, EXOSC10 (mouse (endogenous in BMEL)) (UniProt P56960)
T3 sequence: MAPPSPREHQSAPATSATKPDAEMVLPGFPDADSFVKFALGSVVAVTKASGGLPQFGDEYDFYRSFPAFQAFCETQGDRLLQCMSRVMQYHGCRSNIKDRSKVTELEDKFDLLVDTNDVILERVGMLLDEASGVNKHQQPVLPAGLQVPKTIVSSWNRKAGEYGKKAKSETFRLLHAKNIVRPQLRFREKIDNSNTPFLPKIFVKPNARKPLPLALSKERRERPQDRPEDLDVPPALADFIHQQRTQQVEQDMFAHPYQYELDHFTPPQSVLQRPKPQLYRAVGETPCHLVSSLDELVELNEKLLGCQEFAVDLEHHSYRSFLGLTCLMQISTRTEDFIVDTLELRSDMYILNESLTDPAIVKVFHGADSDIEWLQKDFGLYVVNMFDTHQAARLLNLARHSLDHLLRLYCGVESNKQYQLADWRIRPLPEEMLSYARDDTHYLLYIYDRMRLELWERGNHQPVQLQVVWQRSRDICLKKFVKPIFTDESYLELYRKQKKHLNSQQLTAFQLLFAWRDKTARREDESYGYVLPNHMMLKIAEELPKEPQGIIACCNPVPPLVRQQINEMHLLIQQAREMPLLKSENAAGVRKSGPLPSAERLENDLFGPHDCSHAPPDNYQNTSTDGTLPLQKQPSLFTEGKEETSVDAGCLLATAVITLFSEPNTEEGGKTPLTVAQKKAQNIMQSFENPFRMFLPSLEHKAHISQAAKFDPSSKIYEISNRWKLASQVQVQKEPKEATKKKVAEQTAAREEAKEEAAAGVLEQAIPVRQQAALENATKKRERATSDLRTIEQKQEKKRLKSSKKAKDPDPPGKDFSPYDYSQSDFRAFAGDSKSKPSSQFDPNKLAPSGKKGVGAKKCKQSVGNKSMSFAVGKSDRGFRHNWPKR

[5] = biological target: T1, ZC3H18 (mouse (endogenous in BMEL)); remark: listed apart in the source
[6] = biological target: EXOSC9 (mouse (endogenous in BMEL)) (UniProt Q9JHI7); remark: listed apart in the source

Measured: binding

HP1α (from UniProt Q61686 1-191)
binds: [1] | [2] | [3]

HP1β (from UniProt P83917 1-185)
binds: [1] | [2] | [3]

HP1γ (from UniProt P23198 1-183)
binds: all assays above
